Measurements from the supplement of paper PMC12067093, “Discovery and optimisation of a covalent ligand for TRIM25 and its application to targeted protein ubiquitination” (Chemical Science, 2025).
The other results are listed elsewhere or left out.

The chains behind the UniProt entries cited, without tags or fusion partners. Where a name states a change or a piece, a line headed by the entry shows the natural chain unless it says otherwise.
UniProt Q9H9P8: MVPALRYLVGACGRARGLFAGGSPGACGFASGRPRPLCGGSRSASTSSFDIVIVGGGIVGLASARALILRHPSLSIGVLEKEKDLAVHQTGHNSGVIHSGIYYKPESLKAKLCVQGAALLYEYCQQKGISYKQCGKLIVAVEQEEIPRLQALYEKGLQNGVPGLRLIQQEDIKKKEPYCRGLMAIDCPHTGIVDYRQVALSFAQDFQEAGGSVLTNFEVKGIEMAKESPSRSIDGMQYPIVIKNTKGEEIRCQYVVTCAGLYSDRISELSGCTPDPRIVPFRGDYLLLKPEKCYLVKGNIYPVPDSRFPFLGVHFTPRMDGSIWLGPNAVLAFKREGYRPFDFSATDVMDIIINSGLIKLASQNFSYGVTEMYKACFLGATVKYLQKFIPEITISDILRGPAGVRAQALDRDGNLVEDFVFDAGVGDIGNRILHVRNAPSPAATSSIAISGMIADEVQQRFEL
UniProt Q86WU2: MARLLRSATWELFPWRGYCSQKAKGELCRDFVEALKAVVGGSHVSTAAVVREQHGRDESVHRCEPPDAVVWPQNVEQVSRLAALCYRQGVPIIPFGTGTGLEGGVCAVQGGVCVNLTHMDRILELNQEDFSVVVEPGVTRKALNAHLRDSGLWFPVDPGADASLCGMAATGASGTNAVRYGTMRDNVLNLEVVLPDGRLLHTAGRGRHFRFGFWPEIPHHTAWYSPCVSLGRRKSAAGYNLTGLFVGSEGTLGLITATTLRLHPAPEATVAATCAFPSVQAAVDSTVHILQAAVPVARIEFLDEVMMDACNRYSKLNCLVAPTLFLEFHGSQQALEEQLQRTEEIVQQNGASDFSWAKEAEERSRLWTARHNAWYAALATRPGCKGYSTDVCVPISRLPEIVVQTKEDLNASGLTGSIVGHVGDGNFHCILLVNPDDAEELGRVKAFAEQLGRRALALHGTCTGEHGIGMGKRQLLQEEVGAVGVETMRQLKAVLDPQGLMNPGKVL
UniProt P28838: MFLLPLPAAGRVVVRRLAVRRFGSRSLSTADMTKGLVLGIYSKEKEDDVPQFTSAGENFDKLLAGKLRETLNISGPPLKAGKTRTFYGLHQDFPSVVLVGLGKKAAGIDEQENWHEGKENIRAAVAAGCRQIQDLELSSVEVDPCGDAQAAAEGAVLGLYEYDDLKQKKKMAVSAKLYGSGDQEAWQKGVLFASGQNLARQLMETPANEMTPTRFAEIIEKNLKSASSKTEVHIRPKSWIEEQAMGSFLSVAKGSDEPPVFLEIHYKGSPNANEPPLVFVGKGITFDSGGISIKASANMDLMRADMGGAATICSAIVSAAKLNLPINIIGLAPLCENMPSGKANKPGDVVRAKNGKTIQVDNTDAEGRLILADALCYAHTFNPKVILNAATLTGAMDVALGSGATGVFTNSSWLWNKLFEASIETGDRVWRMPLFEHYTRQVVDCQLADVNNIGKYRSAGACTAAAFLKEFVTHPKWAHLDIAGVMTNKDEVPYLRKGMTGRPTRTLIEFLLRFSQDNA
UniProt O95239: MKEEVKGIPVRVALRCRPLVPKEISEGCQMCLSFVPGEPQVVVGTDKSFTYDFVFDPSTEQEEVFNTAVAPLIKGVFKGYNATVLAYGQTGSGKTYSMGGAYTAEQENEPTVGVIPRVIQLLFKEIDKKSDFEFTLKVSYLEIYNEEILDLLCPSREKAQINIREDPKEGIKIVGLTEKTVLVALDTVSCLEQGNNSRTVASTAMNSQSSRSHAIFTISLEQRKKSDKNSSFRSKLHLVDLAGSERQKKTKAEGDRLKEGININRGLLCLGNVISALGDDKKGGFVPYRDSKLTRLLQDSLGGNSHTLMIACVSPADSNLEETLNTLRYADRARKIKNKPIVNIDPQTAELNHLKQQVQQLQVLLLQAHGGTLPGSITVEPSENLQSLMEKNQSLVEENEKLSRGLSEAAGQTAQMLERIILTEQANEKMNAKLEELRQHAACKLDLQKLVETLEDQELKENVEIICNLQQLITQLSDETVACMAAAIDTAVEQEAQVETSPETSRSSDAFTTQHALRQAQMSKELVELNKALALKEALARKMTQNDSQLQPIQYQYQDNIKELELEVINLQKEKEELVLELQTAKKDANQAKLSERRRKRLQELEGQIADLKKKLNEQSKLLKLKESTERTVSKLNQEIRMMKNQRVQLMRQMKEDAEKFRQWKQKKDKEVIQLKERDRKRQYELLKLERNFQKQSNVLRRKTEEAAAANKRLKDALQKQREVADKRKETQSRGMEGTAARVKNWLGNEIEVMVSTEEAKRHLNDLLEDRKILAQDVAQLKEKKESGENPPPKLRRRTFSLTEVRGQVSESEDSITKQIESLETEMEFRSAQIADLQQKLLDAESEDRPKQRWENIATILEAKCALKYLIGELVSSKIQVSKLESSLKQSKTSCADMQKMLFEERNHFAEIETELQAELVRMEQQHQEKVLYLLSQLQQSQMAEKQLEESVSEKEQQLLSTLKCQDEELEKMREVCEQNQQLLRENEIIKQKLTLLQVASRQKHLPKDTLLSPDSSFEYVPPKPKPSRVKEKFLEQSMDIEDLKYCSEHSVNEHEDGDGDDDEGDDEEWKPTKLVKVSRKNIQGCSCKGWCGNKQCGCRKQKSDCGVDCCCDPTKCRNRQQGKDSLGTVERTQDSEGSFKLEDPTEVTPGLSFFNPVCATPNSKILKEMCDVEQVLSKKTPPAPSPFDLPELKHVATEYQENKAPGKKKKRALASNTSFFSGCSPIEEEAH
UniProt O43813, whole entry, looked up: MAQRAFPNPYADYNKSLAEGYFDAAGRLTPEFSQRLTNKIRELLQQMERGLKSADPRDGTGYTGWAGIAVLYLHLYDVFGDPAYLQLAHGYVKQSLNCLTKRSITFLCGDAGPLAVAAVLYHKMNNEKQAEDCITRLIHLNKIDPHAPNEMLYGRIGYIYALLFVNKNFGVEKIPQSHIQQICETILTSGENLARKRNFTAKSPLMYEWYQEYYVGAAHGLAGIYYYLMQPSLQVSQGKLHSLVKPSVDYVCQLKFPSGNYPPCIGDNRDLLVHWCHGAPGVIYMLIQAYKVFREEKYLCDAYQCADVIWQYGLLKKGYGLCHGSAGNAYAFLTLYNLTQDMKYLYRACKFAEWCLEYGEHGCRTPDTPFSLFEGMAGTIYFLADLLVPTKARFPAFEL
UniProt P50748: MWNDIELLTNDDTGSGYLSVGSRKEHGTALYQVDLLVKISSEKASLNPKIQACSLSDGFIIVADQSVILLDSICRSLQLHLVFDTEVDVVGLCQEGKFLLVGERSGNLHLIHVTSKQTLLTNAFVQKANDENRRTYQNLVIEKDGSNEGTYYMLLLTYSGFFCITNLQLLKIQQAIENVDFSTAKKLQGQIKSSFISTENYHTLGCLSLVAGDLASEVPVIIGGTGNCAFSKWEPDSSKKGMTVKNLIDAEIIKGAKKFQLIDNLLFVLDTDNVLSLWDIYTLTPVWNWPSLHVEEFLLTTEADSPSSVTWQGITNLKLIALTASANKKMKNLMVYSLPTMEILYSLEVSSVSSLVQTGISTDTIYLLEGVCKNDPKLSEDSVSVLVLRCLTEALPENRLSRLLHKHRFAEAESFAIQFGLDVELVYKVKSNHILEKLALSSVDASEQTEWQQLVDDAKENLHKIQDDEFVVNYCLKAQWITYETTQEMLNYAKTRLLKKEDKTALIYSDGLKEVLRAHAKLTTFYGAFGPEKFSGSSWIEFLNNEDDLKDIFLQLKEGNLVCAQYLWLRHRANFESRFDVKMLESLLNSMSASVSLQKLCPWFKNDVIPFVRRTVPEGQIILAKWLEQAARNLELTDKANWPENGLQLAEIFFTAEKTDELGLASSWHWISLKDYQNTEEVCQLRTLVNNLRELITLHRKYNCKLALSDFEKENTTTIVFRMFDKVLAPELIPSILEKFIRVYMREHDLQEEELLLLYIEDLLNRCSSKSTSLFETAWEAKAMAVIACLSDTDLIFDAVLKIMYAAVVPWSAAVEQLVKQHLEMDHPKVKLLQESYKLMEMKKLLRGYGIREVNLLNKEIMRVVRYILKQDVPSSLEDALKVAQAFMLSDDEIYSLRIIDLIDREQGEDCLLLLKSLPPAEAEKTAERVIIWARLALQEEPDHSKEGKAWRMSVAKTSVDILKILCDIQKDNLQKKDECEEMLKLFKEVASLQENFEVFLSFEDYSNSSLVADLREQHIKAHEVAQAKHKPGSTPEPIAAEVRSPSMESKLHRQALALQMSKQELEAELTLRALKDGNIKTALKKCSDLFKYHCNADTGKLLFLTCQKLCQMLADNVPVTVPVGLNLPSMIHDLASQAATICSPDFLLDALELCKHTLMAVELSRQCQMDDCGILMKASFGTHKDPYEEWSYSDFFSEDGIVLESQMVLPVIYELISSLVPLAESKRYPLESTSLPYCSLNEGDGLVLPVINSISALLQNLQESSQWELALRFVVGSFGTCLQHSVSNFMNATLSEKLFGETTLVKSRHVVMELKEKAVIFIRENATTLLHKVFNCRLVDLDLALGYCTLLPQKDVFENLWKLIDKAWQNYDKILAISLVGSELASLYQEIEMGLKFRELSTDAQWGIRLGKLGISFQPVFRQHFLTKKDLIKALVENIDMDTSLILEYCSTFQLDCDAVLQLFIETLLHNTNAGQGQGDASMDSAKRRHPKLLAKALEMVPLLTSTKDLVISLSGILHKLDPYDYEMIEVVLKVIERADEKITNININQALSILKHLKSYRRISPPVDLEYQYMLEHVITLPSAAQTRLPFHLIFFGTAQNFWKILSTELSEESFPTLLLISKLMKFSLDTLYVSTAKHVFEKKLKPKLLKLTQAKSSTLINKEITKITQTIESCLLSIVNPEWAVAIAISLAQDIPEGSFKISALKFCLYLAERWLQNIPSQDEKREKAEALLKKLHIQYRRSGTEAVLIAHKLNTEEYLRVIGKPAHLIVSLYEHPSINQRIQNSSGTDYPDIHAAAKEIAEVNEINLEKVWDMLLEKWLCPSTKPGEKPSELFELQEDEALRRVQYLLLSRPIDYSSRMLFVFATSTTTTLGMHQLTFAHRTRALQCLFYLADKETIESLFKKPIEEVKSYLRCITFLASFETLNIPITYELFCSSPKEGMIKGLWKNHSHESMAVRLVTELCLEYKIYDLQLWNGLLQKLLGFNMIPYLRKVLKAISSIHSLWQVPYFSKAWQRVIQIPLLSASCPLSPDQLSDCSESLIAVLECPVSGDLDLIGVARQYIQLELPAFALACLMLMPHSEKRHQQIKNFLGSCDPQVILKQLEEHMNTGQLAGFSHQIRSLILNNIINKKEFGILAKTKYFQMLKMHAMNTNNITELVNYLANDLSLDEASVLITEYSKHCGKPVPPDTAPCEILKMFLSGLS
UniProt Q14974, whole entry, looked up: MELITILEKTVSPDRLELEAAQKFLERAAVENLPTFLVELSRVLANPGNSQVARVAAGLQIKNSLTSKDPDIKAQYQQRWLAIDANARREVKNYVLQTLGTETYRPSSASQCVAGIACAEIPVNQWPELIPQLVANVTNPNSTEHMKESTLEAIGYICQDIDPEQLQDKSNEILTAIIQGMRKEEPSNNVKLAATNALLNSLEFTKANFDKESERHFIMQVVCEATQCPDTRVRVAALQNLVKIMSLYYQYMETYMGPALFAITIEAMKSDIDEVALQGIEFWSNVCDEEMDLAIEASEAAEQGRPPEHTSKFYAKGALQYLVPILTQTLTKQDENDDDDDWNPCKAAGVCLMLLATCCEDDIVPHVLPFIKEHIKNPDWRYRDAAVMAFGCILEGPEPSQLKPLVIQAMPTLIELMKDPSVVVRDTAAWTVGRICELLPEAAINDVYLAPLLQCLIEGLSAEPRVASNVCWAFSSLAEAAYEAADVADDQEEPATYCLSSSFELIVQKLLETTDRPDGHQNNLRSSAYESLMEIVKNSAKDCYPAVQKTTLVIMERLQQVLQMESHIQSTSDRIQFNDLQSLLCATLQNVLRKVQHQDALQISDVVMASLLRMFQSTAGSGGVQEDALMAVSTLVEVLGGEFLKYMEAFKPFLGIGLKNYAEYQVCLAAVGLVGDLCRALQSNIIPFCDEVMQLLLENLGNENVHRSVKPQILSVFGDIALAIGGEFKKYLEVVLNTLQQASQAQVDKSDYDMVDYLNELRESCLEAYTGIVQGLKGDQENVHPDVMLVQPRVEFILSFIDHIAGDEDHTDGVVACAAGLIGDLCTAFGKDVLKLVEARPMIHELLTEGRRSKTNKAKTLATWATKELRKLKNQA
UniProt Q13601: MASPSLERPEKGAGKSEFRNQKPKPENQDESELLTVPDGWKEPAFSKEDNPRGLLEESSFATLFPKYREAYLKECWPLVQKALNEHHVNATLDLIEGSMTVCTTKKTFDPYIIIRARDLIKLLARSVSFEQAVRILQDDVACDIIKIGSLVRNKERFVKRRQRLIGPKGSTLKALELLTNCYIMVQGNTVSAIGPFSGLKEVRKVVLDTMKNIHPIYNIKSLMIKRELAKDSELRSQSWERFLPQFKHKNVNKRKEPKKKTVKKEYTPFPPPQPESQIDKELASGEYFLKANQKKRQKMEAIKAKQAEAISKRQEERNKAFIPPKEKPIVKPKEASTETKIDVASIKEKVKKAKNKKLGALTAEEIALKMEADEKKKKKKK

Compound: CC1Cc2ccccc2N1C(=O)C1CCCN(C1)C(=O)CCl (mixture of isomers) [TRIM25 ligand 11 (diastereomer mixture)]
Assay: probe-labelled cysteine peptide fold change vs DMSO (competition) (log2 fold change); higher = less target engagement (more negative = stronger competition)
Conditions: 50 µM; THP-1; incubation time: 4 h
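Further: competitive chemoproteomic profiling in live THP-1 cells with an iodoacetamide desthiobiotin (IA-DTB) probe, comparing probe-labelled peptide intensities in compound-treated cells against DMSO-treated controls.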

Row | Target | probe-labelled cysteine peptide fold change
1 | KIF5B_P33176_174_FVCSPDEVMDTIDEGK (UniProt P33176) | -0.199
2 | LDAH_Q9H6V9_274_LTFYYGTIDPWCPK (UniProt Q9H6V9) | -0.0608
3 | KIF2A_O00139_420_LIDIGNSCR (UniProt O00139) | 0.0319
4 | LACTB2_Q53H82_90_DHSGGIGDICK (UniProt Q53H82) | -0.0905
5 | LCOR_Q96JN0-3_1334_MECPDALAVESK (UniProt Q96JN0) | -0.0816
6 | KMT2D_O14686_214_TLQLLCPEHSEGAAYLEEAR (UniProt O14686) | 0.175
7 | LAIR1_Q6GTX8_101_CIYYKPPK (UniProt Q6GTX8) | 0.112
8 | KLHL20_Q9Y2M5_356_CGVGVSVLDDLLYAVGGHDGSSYLNSVER (UniProt Q9Y2M5) | -0.023
9 | LARP1_Q6PKG0_238_NGDEDCQR (UniProt Q6PKG0) | 0.117
10 | KIF20B_Q96Q89_1330_NQCSQELDMK (UniProt Q96Q89) | 0.00626
11 | LARP7_Q4G0J3_493_DTLAAISEVLYVDLLEGDTECHAR (UniProt Q4G0J3) | 0.0714
12 | L2HGDH_Q9H9P8_187_GLMAIDCPHTGIVDYR (UniProt Q9H9P8) | 0.187
13 | LDHD_Q86WU2_392_GYSTDVCVPISR (UniProt Q86WU2) | 0.00616
14 | KLHL7_Q8IXQ5_378_DSLAACAAEGK (UniProt Q8IXQ5) | -0.0258
15 | LCP1_P13796_101_KEGICAIGGTSEQSSVGTQHSYSEEEK (UniProt P13796) | -0.306
16 | KNOP1_Q1ED39_184_DVGDTCSVGK (UniProt Q1ED39) | -0.343
17 | LCMT2_O60294_396_DCDSEWK (UniProt O60294) | 0.162
18 | KYNU_Q16719_425_GVVCDK (UniProt Q16719) | -0.0807
19 | LAP3_P28838_335_LNLPINIIGLAPLCENMPSGK (UniProt P28838) | -0.173

Row | Target | probe-labelled cysteine peptide fold change
20 | LAMTOR5_O43504_66_LTSDPTDIPVVCLESDNGNIMIQK (UniProt O43504) | -0.281
21 | KIFC1_Q9BW19_485_KGQGGECEIR (UniProt Q9BW19) | 0.0451
22 | LARP4_Q71RC2_65_VWQEIAPGNTDATPVTHGTESSWHEIAATSGAHPEGNAELSEDICK (UniProt Q71RC2) | -0.436
23 | KLHDC4_Q8TBB5_120_CAHQAVVVPQGGGQLWVFGGEFASPNGEQFYHYK (UniProt Q8TBB5) | -0.128
24 | KIF4A_O95239_269_GLLCLGNVISALGDDK (UniProt O95239) | 0.106
25 | LARS_Q9P2J5_92_CCLFPFGLHCTGMPIK (UniProt Q9P2J5) | -0.109
26 | LAS1L_Q9Y4W2_169_KMPHINDCRR (UniProt Q9Y4W2) | -0.311
27 | LDHA_P00338_293_DDVFLSVPCILGQNGISDLVK (UniProt P00338) | 0.151
28 | KIF4A_O95239_443_QHAACK (UniProt O95239) | -0.0114
29 | KLC3_Q6P597_314_EAEPLCQR (UniProt Q6P597) | 0.11
30 | LANCL1_O43813_108_SITFLCGDAGPLAVAAVLYHK (UniProt O43813) | -0.111
31 | KNTC1_P50748_911_IIDLIDREQGEDCLLLLK (UniProt P50748) | 0.137
32 | KLHL22_Q53GT1_572+589_DCWEEGPQLDNSISGLAACVLTLPR (UniProt Q53GT1) | 0.112
33 | KPNB1_Q14974_223_HFIMQVVCEATQCPDTR (UniProt Q14974) | -0.386
34 | KLHDC4_Q8TBB5_465_QVTLSDLHCLDLHR (UniProt Q8TBB5) | -0.155
35 | LACTB_P83111_154_EVWSEGLGYADVENRVPCKPETVMR (UniProt P83111) | 0.0521
36 | L2HGDH_Q9H9P8_376_ACFLGATVK (UniProt Q9H9P8) | 0.293
37 | KRR1_Q13601_102_ALNEHHVNATLDLIEGSMTVCTTK (UniProt Q13601) | 0.121
